These are yes or no findings as the source states them, for the method shown. In cells and extracts the contact can be indirect. Here binding means that the protein was enriched with, or labelled near, the bait; the list need not be complete. Where a sequence is shown, tags or fusion partners need not be part of it.
Biological target: T1, Flag-NPHP5 (nephrocystin-5), full length 1-598 (UniProt Q15051)
T1 sequence: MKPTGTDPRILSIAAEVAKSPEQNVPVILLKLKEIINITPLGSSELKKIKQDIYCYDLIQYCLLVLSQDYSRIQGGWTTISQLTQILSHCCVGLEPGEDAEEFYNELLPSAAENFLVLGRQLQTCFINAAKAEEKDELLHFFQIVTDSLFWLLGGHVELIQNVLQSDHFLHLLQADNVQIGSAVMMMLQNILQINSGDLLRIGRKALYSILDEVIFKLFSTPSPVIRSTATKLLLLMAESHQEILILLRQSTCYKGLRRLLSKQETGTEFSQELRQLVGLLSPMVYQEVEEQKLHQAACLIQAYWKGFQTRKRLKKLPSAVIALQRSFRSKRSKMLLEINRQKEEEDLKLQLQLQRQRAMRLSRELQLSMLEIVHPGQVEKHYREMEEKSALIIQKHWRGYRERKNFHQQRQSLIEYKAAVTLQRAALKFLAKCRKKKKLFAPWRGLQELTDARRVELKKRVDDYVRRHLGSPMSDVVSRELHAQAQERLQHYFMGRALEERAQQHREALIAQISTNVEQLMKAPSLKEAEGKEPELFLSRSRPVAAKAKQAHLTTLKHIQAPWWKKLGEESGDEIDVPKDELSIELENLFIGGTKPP
Test: affinity purification with mass spectrometry; Flag-NPHP5 complexes from HEK293 lysate (50 mM HEPES pH 7.4, 250 mM NaCl, 5 mM EDTA, 0.1% NP-40) on anti-Flag agarose, 2 h at 4°C, eluted with Flag peptide, gel slices analysed by LC-MS/MS

By UniProt entry, the sequences of proteins in these tests, tags left out.
UniProt Q93008: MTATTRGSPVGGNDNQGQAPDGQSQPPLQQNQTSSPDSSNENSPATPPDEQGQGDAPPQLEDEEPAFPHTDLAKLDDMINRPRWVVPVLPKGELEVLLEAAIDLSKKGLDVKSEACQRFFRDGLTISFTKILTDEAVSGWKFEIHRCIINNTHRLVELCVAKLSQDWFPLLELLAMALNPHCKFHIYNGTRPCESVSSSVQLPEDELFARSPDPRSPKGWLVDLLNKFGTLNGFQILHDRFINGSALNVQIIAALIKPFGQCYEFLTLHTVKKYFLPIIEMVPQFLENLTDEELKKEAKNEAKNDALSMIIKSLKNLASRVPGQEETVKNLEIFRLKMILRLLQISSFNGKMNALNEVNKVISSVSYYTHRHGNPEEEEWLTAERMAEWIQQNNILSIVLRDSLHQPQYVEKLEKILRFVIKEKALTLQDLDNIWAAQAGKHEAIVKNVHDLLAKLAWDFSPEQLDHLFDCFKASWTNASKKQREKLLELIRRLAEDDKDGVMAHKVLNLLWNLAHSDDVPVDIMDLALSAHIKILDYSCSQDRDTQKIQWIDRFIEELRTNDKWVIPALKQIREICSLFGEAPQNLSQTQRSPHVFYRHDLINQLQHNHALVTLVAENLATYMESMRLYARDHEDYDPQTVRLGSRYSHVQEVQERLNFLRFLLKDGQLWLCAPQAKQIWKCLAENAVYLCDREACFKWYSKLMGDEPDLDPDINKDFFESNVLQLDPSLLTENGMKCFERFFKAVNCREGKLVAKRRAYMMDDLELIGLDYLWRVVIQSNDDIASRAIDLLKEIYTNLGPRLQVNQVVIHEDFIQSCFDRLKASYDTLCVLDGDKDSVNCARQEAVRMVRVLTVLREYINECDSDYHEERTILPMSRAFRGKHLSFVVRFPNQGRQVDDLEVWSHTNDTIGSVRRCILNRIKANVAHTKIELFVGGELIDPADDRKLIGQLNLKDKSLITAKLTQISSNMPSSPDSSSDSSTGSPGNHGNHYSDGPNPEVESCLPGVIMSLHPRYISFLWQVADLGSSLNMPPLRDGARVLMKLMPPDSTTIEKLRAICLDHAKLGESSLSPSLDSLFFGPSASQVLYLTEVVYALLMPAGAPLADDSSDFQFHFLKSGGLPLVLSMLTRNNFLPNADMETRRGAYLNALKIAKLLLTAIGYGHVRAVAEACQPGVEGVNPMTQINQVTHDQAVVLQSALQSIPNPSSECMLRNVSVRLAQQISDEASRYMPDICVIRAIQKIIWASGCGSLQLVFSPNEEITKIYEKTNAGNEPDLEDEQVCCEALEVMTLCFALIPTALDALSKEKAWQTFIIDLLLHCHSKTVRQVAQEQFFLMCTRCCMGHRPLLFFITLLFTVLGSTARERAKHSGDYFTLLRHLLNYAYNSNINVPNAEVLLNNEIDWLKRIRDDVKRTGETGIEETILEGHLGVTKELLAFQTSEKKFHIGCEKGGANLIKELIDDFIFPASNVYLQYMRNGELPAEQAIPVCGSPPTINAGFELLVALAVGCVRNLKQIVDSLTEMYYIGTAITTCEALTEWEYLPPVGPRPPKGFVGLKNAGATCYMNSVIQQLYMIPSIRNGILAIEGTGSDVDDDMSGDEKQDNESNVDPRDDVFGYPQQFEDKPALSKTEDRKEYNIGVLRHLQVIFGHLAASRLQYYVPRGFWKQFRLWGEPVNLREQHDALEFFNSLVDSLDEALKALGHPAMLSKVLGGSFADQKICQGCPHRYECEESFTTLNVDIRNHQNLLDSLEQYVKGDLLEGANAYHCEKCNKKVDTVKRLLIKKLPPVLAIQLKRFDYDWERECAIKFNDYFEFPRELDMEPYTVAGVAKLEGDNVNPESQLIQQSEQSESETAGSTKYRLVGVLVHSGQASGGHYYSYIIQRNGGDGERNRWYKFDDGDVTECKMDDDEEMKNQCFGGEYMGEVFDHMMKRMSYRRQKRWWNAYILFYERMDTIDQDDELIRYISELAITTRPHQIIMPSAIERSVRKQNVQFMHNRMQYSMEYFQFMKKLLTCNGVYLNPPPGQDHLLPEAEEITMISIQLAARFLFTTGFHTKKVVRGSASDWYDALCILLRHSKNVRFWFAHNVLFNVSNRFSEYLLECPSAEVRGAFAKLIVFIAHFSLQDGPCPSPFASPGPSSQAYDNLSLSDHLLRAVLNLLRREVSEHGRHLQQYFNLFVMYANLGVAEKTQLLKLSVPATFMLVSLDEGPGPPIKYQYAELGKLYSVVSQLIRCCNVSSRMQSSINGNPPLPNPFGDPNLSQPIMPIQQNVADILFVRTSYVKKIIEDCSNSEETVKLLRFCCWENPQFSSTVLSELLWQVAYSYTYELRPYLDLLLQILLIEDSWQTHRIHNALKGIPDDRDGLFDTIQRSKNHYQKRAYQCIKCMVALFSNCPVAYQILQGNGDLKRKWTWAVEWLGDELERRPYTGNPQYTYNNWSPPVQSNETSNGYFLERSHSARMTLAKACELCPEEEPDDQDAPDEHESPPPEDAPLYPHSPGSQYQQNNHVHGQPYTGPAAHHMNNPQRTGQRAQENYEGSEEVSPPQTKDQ

binding: binds
Substance: USP9X/FAM, endogenous (from UniProt Q93008 1-2554) (enzyme)

Reference: publication PMC5446187, “USP9X counteracts differential ubiquitination of NPHP5 by MARCH7 and BBS11 to regulate ciliogenesis” (PLoS Genetics, 2017)
